Source: PMC5974360
Results are given in words; binding and its absence hold for the method and conditions named. Binding seen in cells or lysates may run through a third protein. Some entries that bind do so weakly or less than the wild type.

T1: Wnt7b (mouse (endogenous in fibrotic lung tissue)) (UniProt P28047)
T1 sequence: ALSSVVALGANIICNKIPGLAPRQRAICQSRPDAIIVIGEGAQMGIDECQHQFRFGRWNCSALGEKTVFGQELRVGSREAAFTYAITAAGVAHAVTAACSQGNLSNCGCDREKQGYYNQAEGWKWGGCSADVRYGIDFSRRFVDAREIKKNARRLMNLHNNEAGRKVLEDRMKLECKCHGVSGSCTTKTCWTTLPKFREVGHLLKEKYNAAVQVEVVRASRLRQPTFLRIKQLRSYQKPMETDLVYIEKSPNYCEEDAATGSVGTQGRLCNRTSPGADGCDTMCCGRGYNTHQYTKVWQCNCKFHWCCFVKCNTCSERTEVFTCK


Target: T1, Wnt7b (mouse (endogenous in fibrotic lung tissue))
Experiment: co-IP; Pierce Co-IP kit; Wnt7b or Wnt10a antibody immobilised on AminoLink Plus Coupling Resin, incubated with the lysate of mouse fibrotic lung tissues overnight; western blot

binding	Binder
binds	Fzd10 (receptor, UniProt Q8BKG4 22-582) ISSMDLERPGDGKCQPVEIPMCKDIGYNTTRMPNLMGHENQREAAIQLHEFAPLVEYGCHSHLRFFLCSLYAPMCTEQVSTPIPACRVMCEQARLKCSPIMEQFKFRWPDSLDCSKLPNKNDPNYLCMEAPNNGSDEPSRGSGMFPPLFRPQRPHSAQEHPLKDGGPGRAGCDNPGKFHHVEKSESCAPLCTPGVDVYWSRDDKRFAVVWLAIWSVLCFFSSAFTVLTFLIDPSRFRYPERPIIFLSMCYCVYSVGYIIRLFAGAESIACDRDSGQLYVIQEGLESTGCTLVFLVLYYFGMASSLWWVVLTLTWFLAAGKKWGHEAIEANSSYFHLAAWAIPAVKTILILVMRRVAGDELTGVCYVGSMDVNALTGFVLVPLACYLVIGTSFILSGFVALFHIRRVMKTGGENTDKLEKLMVRIGVFSLLYTVPATCVIACYFYERLNMDYWKMLATQHKCKMNNQTKTPDCLMTTSIPAVEVFMVKVSMLLVVGITSGVWVWTSKTLQSWQHVCSRGLKRKSRRKPASVVTSAGIYKKAQHPQKPHLGKYELPAQPSACV
no binding	Fzd9 (receptor, UniProt Q9R216 24-592) LEIGRFDPERGRGPAPCQAMEIPMCRGIGYNLTRMPNLLGHTSQGEAAAQLAEFSPLVQYGCHSHLRFFLCSLYAPMCTDQVSTPIPACRPMCEQARLRCAPIMEQFNFGWPDSLDCARLPTRNDPHALCMEAPENATAGPTEPHKGLGMLPVAPRPARPPGDSAPGPGSGGTCDNPEKFQYVEKSRSCAPRCGPGVEVFWSRRDKDFALVWMAVWSALCFFSTAFTVFTFLLEPHRFQYPERPIIFLSMCYNVYSLAFLIRAVAGAQSVACDQEAGALYVIQEGLENTGCTLVFLLLYYFGMASSLWWVVLTLTWFLAAGKKWGHEAIEAHGSYFHMAAWGLPALKTIVVLTLRKVAGDELTGLCYVASMDPAALTGFVLVPLSCYLVLGTSFLLTGFVALFHIRKIMKTGGTNTEKLEKLMVKIGVFSILYTVPATCVIVCYVYERLNMDFWRLRATEQPCTAATVPGGRRDCSLPGGSVPTVAVFMLKIFMSLVVGITSGVWVWSSKTFQTWQSLCYRKMAAGRARAKACRTPGGYGRGTHCHYKAPTVVLHMTKTDPSLENPTHL
